Taken from: PubChem BioAssay AID1259308 (NCATS, 2017)
Shown is an unselected part of about 59,000 deposited reagents. In the full data, about 1,510 (2.6%) are marked active. 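Calls use total luciferase alone and ignore viability, so some active siRNAs may act by altering cell number.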 Unmarked entries are inactive. Reagents against one gene are numbered here. Further read-outs or replicates are left out here.

Test: 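Genes whose loss raises luciferase production in HEK293 cells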 (primary screen)
System: human HEK293 embryonic kidney cells stably expressing firefly luciferase (HEK-CMV-Luc2-Hygro)
Reagents: single siRNA against human genes, 0.8 pmol siRNA per well
Timing: 72 h
Read-out: 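Luciferase light (ONE-Glo) measured on one replicate plate set and viability (CellTiter-Glo) on the other, scaled to a negative control siRNA, with robust z-scores and luciferase per cell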
Direction: total luciferase, z-score and total luciferase, % of control: higher = more reporter protein produced
Hit rule: 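Active when the median/MAD z-score for overall luciferase is greater than 3; a gene was taken forward for validation with new siRNAs if at least two of its three siRNAs passed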
Calls: active = raised luciferase; inactive = no rise

ELAC2 (GeneID 60528) #1
- total luciferase, z-score: -2.26
- total luciferase, % of control: 37

ELAC2 (GeneID 60528) #2
- total luciferase, z-score: 0.849
- total luciferase, % of control: 98.8

ELAC2 (GeneID 60528) #3
- total luciferase, z-score: 0.813
- total luciferase, % of control: 98.1

MCEMP1 (GeneID 199675) #1
- total luciferase, z-score: 0.045
- total luciferase, % of control: 82.8

MCEMP1 (GeneID 199675) #2
- total luciferase, z-score: 2.89
- total luciferase, % of control: 139

MCEMP1 (GeneID 199675) #3
- total luciferase, z-score: -0.231
- total luciferase, % of control: 77.3

YWHAG (GeneID 7532) #1
- total luciferase, z-score: -0.142
- total luciferase, % of control: 79.1

YWHAG (GeneID 7532) #2
- total luciferase, z-score: 0.388
- total luciferase, % of control: 89.6

YWHAG (GeneID 7532) #3
- total luciferase, z-score: 1.46
- total luciferase, % of control: 111

LCNL1 (GeneID 401562) #1
- total luciferase, z-score: 0.516
- total luciferase, % of control: 92.2

LCNL1 (GeneID 401562) #2
- total luciferase, z-score: 2.39
- total luciferase, % of control: 129

LCNL1 (GeneID 401562) #3
- total luciferase, z-score: 2.29
- total luciferase, % of control: 127

RALA (GeneID 5898) #1
- total luciferase, z-score: -0.0197
- total luciferase, % of control: 81.5

RALA (GeneID 5898) #2
- total luciferase, z-score: 2.1
- total luciferase, % of control: 124

RALA (GeneID 5898) #3
- total luciferase, z-score: -0.798
- total luciferase, % of control: 66

FBXO7 (GeneID 25793) #1
- total luciferase, z-score: 0.62
- total luciferase, % of control: 94.2

FBXO7 (GeneID 25793) #2
- total luciferase, z-score: 0.108
- total luciferase, % of control: 84

FBXO7 (GeneID 25793) #3
- total luciferase, z-score: -3.22
- total luciferase, % of control: 17.9

RET (GeneID 5979) #1
- total luciferase, z-score: 2.65
- total luciferase, % of control: 135

RET (GeneID 5979) #2
- total luciferase, z-score: 0.435
- total luciferase, % of control: 90.5

RET (GeneID 5979) #3
- total luciferase, z-score: -2.67
- total luciferase, % of control: 28.8

The list goes on, starting with the last 2 of the part before.
RET (GeneID 5979) #2
- total luciferase, z-score: 0.435
- total luciferase, % of control: 90.5

RET (GeneID 5979) #3
- total luciferase, z-score: -2.67
- total luciferase, % of control: 28.8

CTDSP1 (GeneID 58190) #1
- total luciferase, z-score: -0.342
- total luciferase, % of control: 75.1

CTDSP1 (GeneID 58190) #2
- total luciferase, z-score: -0.793
- total luciferase, % of control: 66.1

CTDSP1 (GeneID 58190) #3
- total luciferase, z-score: -0.803
- total luciferase, % of control: 65.9

SASH3 (GeneID 54440) #1
- total luciferase, z-score: 0.161
- total luciferase, % of control: 85.1

SASH3 (GeneID 54440) #2
- total luciferase, z-score: -0.759
- total luciferase, % of control: 66.8

SASH3 (GeneID 54440) #3
- total luciferase, z-score: -1.74
- total luciferase, % of control: 47.2

SLCO1B1 (GeneID 10599) #1
- total luciferase, z-score: -0.173
- total luciferase, % of control: 78.4

SLCO1B1 (GeneID 10599) #2
- total luciferase, z-score: -0.352
- total luciferase, % of control: 74.9

SLCO1B1 (GeneID 10599) #3
- total luciferase, z-score: -1.03
- total luciferase, % of control: 61.5

KLHL34 (GeneID 257240) #1
- total luciferase, z-score: 5.04 (active)
- total luciferase, % of control: 182

KLHL34 (GeneID 257240) #2
- total luciferase, z-score: -0.868
- total luciferase, % of control: 64.6

KLHL34 (GeneID 257240) #3
- total luciferase, z-score: 0.108
- total luciferase, % of control: 84
